Test results as given in article PMC4220973, “Structural insights into the human RyR2 N-terminal region involved in cardiac arrhythmias” (Acta Crystallographica Section D: Biological Crystallography, 2014).
No constants are given. Whether binding was seen depends on the method and setting. One block for each substance: values may come before it.

Legend:
Assay in all cases: SEC; analytical size-exclusion chromatography at 4°C; self-association, monomer to dimer; both purified
[1] = target: hRyR2^1-606 I419F/R420W double mutant (human) (UniProt Q92736)
[2] = target: hRyR2^1-606 R420W mutant (human) (UniProt Q92736)
[3] = target: human ryanodine receptor 2 N-terminal fragment encompassing amino acids 1-606 (hRyR2^1-606), wild type (human) (UniProt Q92736)

binding [1]: no binding
Substance: hRyR2^1-606 I419F/R420W double mutant (from UniProt Q92736 1-606) (domain or fragment)

binding [2]: no binding
Substance: hRyR2^1-606 R420W mutant (from UniProt Q92736 1-606) (domain or fragment)

binding [3]: no binding
Substance: human ryanodine receptor 2 N-terminal fragment encompassing amino acids 1-606 (hRyR2^1-606), wild type (from UniProt Q92736 1-606) (domain or fragment)
